Reference: paper PMC11193767

Chains of the proteins cited; added tags and fusions are not shown.
UniProt Q8IWT6: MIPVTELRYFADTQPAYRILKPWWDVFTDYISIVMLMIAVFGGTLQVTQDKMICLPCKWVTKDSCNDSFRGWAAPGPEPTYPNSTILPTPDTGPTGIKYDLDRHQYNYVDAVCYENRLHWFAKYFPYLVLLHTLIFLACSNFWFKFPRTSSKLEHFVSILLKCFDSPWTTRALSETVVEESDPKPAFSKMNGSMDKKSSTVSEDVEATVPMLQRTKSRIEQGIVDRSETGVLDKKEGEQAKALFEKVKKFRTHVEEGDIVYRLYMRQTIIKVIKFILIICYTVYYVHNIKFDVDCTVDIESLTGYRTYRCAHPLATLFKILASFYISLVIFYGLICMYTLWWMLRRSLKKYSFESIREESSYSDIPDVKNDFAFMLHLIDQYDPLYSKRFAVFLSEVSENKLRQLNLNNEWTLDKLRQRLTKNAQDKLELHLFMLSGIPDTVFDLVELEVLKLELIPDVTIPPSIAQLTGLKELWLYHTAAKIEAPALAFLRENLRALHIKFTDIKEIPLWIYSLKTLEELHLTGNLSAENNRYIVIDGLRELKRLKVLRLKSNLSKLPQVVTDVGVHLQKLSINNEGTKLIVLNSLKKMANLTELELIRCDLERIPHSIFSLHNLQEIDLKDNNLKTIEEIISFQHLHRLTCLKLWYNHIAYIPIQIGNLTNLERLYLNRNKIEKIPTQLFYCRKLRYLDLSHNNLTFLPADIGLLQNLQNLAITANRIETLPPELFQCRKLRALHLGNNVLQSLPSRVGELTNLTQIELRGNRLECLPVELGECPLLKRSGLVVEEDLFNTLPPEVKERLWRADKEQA

B1: Macoilin 1 (protein, UniProt Q8N5G2-1 1-664)
chain: MKRRNADCSKLRRPLKRNRITEGIYGSTFLYLKFLVVWALVLLADFVLEFRFEYLWPFWLFIRSVYDSFRYQGLAFSVFFVCVAFTSNIICLLFIPIQWLFFAASTYVWVQYVWHTERGVCLPTVSLWILFVYIEAAIRFKDLKNFHVDLCRPFAAHCIGYPVVTLGFGFKSYVSYKMRLRKQKEVQKENEFYMQLLQQALPPEQQMLQKQEKEAEEAAKGLPDMDSSILIHHNGGIPANKKLSTTLPEIEYREKGKEKDKDAKKHNLGINNNNILQPVDSKIQEIEYMENHINSKRLNNDLVGSTENLLKEDSCTASSKNYKNASGVVNSSPRSHSATNGSIPSSSSKNEKKQKCTSKSPSTHKDLMENCIPNNQLSKPDALVRLEQDIKKLKADLQASRQVEQELRSQISSLSSTERGIRSEMGQLRQENELLQNKLHNAVQMKQKDKQNISQLEKKLKAEQEARSFVEKQLMEEKKRKKLEEATAARAVAFAAASRGECTETLRNRIRELEAEGKKLTMDMKVKEDQIRELELKVQELRKYKENEKDTEVLMSALSAMQDKTQHLENSLSAETRIKLDLFSALGDAKRQLEIAQGQILQKDQEIKDLKQKIAEVMAVMPSITYSAATSPLSPVSPHYSSKFVETSPSGLDPNASVYQPLKK
B2: Lamina-associated polypeptide 2, isoform alpha (protein, UniProt P42166 1-694)
chain: MPEFLEDPSVLTKDKLKSELVANNVTLPAGEQRKDVYVQLYLQHLTARNRPPLPAGTNSKGPPDFSSDEEREPTPVLGSGAAAAGRSRAAVGRKATKKTDKPRQEDKDDLDVTELTNEDLLDQLVKYGVNPGPIVGTTRKLYEKKLLKLREQGTESRSSTPLPTISSSAENTRQNGSNDSDRYSDNEEGKKKEHKKVKSTRDIVPFSELGTTPSGGGFFQGISFPEISTRPPLGSTELQAAKKVHTSKGDLPREPLVATNLPGRGQLQKLASERNLFISCKSSHDRCLEKSSSSSSQPEHSAMLVSTAASPSLIKETTTGYYKDIVENICGREKSGIQPLCPERSHISDQSPLSSKRKALEESESSQLISPPLAQAIRDYVNSLLVQGGVGSLPGTSNSMPPLDVENIQKRIDQSKFQETEFLSPPRKVPRLSEKSVEERDSGSFVAFQNIPGSELMSSFAKTVVSHSLTTLGLEVAKQSQHDKIDASELSFPFHESILKVIEEEWQQVDRQLPSLACKYPVSSREATQILSVPKVDDEILGFISEATPLGGIQAASTESCNQQLDLALCRAYEAAASALQIATHTAFVAKAMQADISQAAQILSSDPSRTHQALGILSKTYDAASYICEAAFDEVKMAAHTMGNATVGRRYLWLKDCKINLASKNKLASTPFKGGTLFGGEVCKVIKKRGNKH
B3: Dual specificity protein kinase TTK (protein, UniProt P33981-1 1-857)
chain: MESEDLSGRELTIDSIMNKVRDIKNKFKNEDLTDELSLNKISADTTDNSGTVNQIMMMANNPEDWLSLLLKLEKNSVPLSDALLNKLIGRYSQAIEALPPDKYGQNESFARIQVRFAELKAIQEPDDARDYFQMARANCKKFAFVHISFAQFELSQGNVKKSKQLLQKAVERGAVPLEMLEIALRNLNLQKKQLLSEEEKKNLSASTVLTAQESFSGSLGHLQNRNNSCDSRGQTTKARFLYGENMPPQDAEIGYRNSLRQTNKTKQSCPFGRVPVNLLNSPDCDVKTDDSVVPCFMKRQTSRSECRDLVVPGSKPSGNDSCELRNLKSVQNSHFKEPLVSDEKSSELIITDSITLKNKTESSLLAKLEETKEYQEPEVPESNQKQWQSKRKSECINQNPAASSNHWQIPELARKVNTEQKHTTFEQPVFSVSKQSPPISTSKWFDPKSICKTPSSNTLDDYMSCFRTPVVKNDFPPACQLSTPYGQPACFQQQQHQILATPLQNLQVLASSSANECISVKGRIYSILKQIGSGGSSKVFQVLNEKKQIYAIKYVNLEEADNQTLDSYRNEIAYLNKLQQHSDKIIRLYDYEITDQYIYMVMECGNIDLNSWLKKKKSIDPWERKSYWKNMLEAVHTIHQHGIVHSDLKPANFLIVDGMLKLIDFGIANQMQPDTTSVVKDSQVGTVNYMPPEAIKDMSSSRENGKSKSKISPKSDVWSLGCILYYMTYGKTPFQQIINQISKLHAIIDPNHEIEFPDIPEKDLQDVLKCCLKRDPKQRISIPELLAHPYVQIQTHPVNQMAKGTTEEMKYVLGQLVGLNSPNSILKAAKTLYEHYSGGESHNSSSSKTFEKKRGKK
B4: Ubiquitin-conjugating enzyme E2 J1 (protein, UniProt Q9Y385 1-318)
chain: METRYNLKSPAVKRLMKEAAELKDPTDHYHAQPLEDNLFEWHFTVRGPPDSDFDGGVYHGRIVLPPEYPMKPPSIILLTANGRFEVGKKICLSISGHHPETWQPSWSIRTALLAIIGFMPTKGEGAIGSLDYTPEERRALAKKSQDFCCEGCGSAMKDVLLPLKSGSDSSQADQEAKELARQISFKAEVNSSGKTISESDLNHSFSLTDLQDDIPTTFQGATASTSYGLQNSSAASFHQPTQPVAKNTSMSPRQRRAQQQSQRRLSTSPDVIQGHQPRDNHTDHGGSAVLIVILTLALAALIFRRIYLANEYIFDFEL
B5: UbiA prenyltransferase domain-containing protein 1 (protein, UniProt Q9Y5Z9-1 1-338)
chain: MAASQVLGEKINILSGETVKAGDRDPLGNDCPEQDRLPQRSWRQKCASYVLALRPWSFSASLTPVALGSALAYRSHGVLDPRLLVGCAVAVLAVHGAGNLVNTYYDFSKGIDHKKSDDRTLVDRILEPQDVVRFGVFLYTLGCVCAACLYYLSPLKLEHLALIYFGGLSGSFLYTGGIGFKYVALGDLIILITFGPLAVMFAYAIQVGSLAIFPLVYAIPLALSTEAILHSNNTRDMESDREAGIVTLAILIGPTFSYILYNTLLFLPYLVFSILATHCTISLALPLLTIPMAFSLERQFRSQAFNKLPQRTAKLNLLLGLFYVFGIILAPAGSLPKI
B6: USP6 N-terminal-like protein (protein, UniProt Q92738-2 1-845)
chain: MRTEAVVNSQGQTDYLTKDSDQDVALKLAQERAEIVAKYDRGREGAEIEPWEDADYLVYKVTDRFGFLHEEELPDHNVAVERQKHLEIERTTKWLKMLKGWEKYKNTEKFHRRIYKGIPLQLRGEVWALLLEIPKMKEETRDLYSKLKHRARGCSPDIRQIDLDVNRTFRDHIMFRDRYGVKQQSLFHVLAAYSIYNTEVGYCQGMSQITALLLMYMNEEDAFWALVKLFSGPKHAMHGFFVQGFPKLLRFQEHHEKILNKFLSKLKQHLDSQEIYTSFYTMKWFFQCFLDRTPFTLNLRIWDIYIFEGERVLTAMSYTILKLHKKHLMKLSMEELVEFFQETLAKDFFFEDDFVIEQLQISMTELKRAKLDLPEPGKEDEYPKKPLGQLPPELQSWGVHHLSNGQRSVGRPSPLASGRRESGAPHRRHEHSPHPQSRTGTPERAQPPRRKSVEEESKKLKDEADFQRKLPSGPQDSSRQYNHAAANQNSNATSNIRKEFVPKWNKPSDVSATERTAKYTMEGKGRAAHPALAVTVPGPAEVRVSNVRPKMKALDAEDGKRGSTASQYDNVPGPELDSGASVEEALERAYSQSPRHALYPPSPRKHAEPSSSPSKVSNKFTFKVQPPSHARYPSQLDGEARGLAHPPSYSNPPVYHGNSPKHFPTANSSFASPQFSPGTQLNPSRRPHGSTLSVSASPEKSYSRPSPLVLPSSRIEVLPVDTGAGGYSGNSGSPKNGKLIIPPVDYLPDNRTWSEVSYTYRPETQGQSWTRDASRGNLPKYSAFQLAPFQDHGLPAVSVDSPVRYKASPAAEDASPSGYPYSGPPPPAYHYRNRDGLSIQESVLL
B7: VANGL planar cell polarity protein 1 (protein, UniProt Q8TAA9-1 1-524)
chain: MDTESTYSGYSYYSSHSKKSHRQGERTRERHKSPRNKDGRGSEKSVTIQPPTGEPLLGNDSTRTEEVQDDNWGETTTAITGTSEHSISQEDIARISKDMEDSVGLDCKRYLGLTVASFLGLLVFLTPIAFILLPPILWRDELEPCGTICEGLFISMAFKLLILLIGTWALFFRKRRADMPRVFVFRALLLVLIFLFVVSYWLFYGVRILDSRDRNYQGIVQYAVSLVDALLFIHYLAIVLLELRQLQPMFTLQVVRSTDGESRFYSLGHLSIQRAALVVLENYYKDFTIYNPNLLTASKFRAAKHMAGLKVYNVDGPSNNATGQSRAMIAAAARRRDSSHNELYYEEAEHERRVKKRKARLVVAVEEAFIHIQRLQAEEQQKAPGEVMDPREAAQAIFPSMARALQKYLRITRQQNYHSMESILQHLAFCITNGMTPKAFLERYLSAGPTLQYDKDRWLSTQWRLVSDEAVTNGLRDGIVFVLKCLDFSLVVNVKKIPFIILSEEFIDPKSHKFVLRLQSETSV

molecular target: LRRC8A-BirA*-HA fusion protein (human) (UniProt Q8IWT6); test: proximity labelling; BioID: HEK293 cells stably expressing LRRC8A-BirA*-HA (two clones), 50 uM biotin 24 h, RIPA lysis, streptavidin bead pull-down of biotinylated proteins, TMT labelling and LC-MS/MS; hits: FDR <= 0.05 and fold change >= 2 against the no-biotin control

Row | Binder | binding
1 | B1 | binds
2 | B2 | binds
3 | B3 | binds
4 | B4 | binds
5 | B5 | binds
6 | B6 | binds
7 | B7 | binds

No constants are given. Whether binding was seen depends on the method and setting. Binding seen in cells or lysates may run through a third protein. These calls come from enrichment with a bait or labelling near it, and not all partners need be listed.
